# Results: the supplement of paper PMC3334620
# In all, about 33,000 sequences were measured (“E-score (-0.5 to 0.5)”: median about -0.0014, highest 2% from about 0.25 on). This is one part of the list.
# Target: T1, Cad1 (UniProt P24813)
# T1 sequence: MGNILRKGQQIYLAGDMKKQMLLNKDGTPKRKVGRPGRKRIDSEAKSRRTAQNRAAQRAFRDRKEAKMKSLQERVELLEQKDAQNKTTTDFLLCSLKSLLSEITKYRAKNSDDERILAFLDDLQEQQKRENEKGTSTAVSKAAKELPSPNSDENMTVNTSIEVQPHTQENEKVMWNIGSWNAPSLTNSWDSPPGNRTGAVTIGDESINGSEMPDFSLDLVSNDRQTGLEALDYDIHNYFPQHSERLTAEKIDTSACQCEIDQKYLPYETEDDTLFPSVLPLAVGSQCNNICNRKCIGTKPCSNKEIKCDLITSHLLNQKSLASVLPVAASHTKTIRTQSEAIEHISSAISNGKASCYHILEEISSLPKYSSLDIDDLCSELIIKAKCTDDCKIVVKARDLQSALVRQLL
# Test: PBM E-score (8-mer binding enrichment) (E-score (-0.5 to 0.5)); higher = stronger / more preferred TF binding
# Details: protein concentration: 100 nM; construct: GST-full length
# Method in brief: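 Each ungapped eight-base word and its reverse complement, pooled, received an E-score from the Universal PBM Analysis Suite. Underlying scans, normalised with masliner, recorded fluorescent anti-GST bound to GST-tagged yeast transcription factors. These were applied at about 100-200 nM to universal all-10-mer Agilent arrays double-stranded by primer extension.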
row,Sequence,PBM E-score
1,CACTTATA,0.0359
2,GGAGAGTA,-0.187
3,ACCATCGC,0.152
4,ACTTTTGA,-0.0408
5,CGACTTCA,0.0294
6,ACACACTG,0.104
7,ACAATACG,0.0611
8,AACATCCG,0.141
9,GTTGCTTA,0.261
10,AACTTTGC,0.0556
11,CGAGTTTA,-0.0253
12,CCACTTTA,-0.0449
13,CCAAATTA,0.107
14,AAACCGAA,-0.0175
15,CCCTAACG,0.0377
16,GCGTGTTA,0.0162
17,CAATGACC,-0.246
18,GCGTGATA,0.0363
19,ACACATAT,0.148
20,CACTAAGG,0.0116
21,CTGAGGTA,-0.046
22,ACTTCATA,-0.0903
23,ACAGTGCA,0.16
24,CACGGATA,0.22
25,AAAGTGCC,-0.203

# Quoted from the listing.
# Entry of GCGTGTTA under PBM E-score: 0.0162
# Entry of CGAGTTTA under PBM E-score: -0.0253
# Entry of ACTTTTGA under PBM E-score: -0.0408

# (listing goes on)

row,Sequence,PBM E-score
1,GCTATTGA,-0.0494
2,CATTGTTC,0.118
3,AATAGCCG,-0.0148
4,ACGGTAGA,-0.211
5,AGACAACG,-0.0176
6,CGGATGAG,-0.0451
7,AAAAGAGA,0.0357
8,AATTATAC,0.172
9,ACCCATCG,-0.111
10,CCTACACA,-0.0437
11,ATGCCGGG,-0.164
12,TCAGCTGA,0.31
13,ATGAGCAG,0.0829
14,ACTTTGCG,0.0838
15,ACCATCCG,-0.081
16,CTAGTAAC,-0.101
17,GACAATAA,0.152
18,CGACACTC,0.0197
19,ATCCTCCG,-0.0633
20,ATCGTCGC,0.204
21,CAGCGCGG,0.112
22,CCTACGAA,-0.109
23,GAAGGTCA,-0.195
24,CCGTTCAC,-0.094
25,ATTGATGG,0.132

row,Sequence,PBM E-score
1,CGACGGAG,-0.00272
2,CACCGGTG,-0.239
3,CGCATCGC,0.017
4,GAATCTCC,-0.0557
5,CCCTTCTC,-0.243
6,CTTGTGTA,0.134
7,CCGAAAGA,0.132
8,ACCTCCTC,-0.148
9,ATTCTTGG,0.0331
10,ATTAAACC,0.0795
11,CGGACGAA,0.274
12,ACGGGCCC,-0.129
13,GGACTTGA,-0.232
14,GGCCCACC,-0.116
15,AGACCCCT,-0.3
16,ATCAATGA,0.139
17,GAGGGGAA,-0.116
18,CGATTCTC,0.0405
19,ACGTACTA,0.0515
20,GCGCTCCA,0.0337
21,GACCCGCA,-0.0562
22,CCTACTCC,-0.163
23,CGCGCTCC,0.133
24,AACTCCGG,0.156
25,GAGTGCTA,-0.0874

row,Sequence,PBM E-score
1,ATCTATAG,0.0164
2,CTGATCCA,0.0536
3,ACATCAAG,0.0394
4,ATCGCTAC,0.0212
5,AGTTACCG,0.101
6,ACGGTATG,0.015
7,TGAACCAA,0.218
8,AAATCAAA,0.189
9,AGTTTGTC,0.086
10,CATATTCG,0.129
11,GTAGACAA,-0.0874
12,GCGTATAA,0.00384
13,TCGAACAA,0.24
14,CTGGCTCA,0.0881
15,CGTGGGAC,0.0724
16,AATATAGG,0.123
17,CTCCACGA,-0.0309
18,GAATTGAC,-0.0429
19,ATGCCTTG,-0.162
20,CCAGGGCG,-0.18
21,ACATCTGG,-0.0409
22,GAAGGAGC,-0.432
23,GCCCCACA,-0.159
24,AAAGAGCG,-0.00921
25,AACAAGCC,-0.0634

# Reprinted at random: 2 entries already listed, in no set order.
row,Sequence,PBM E-score
14,CTGGCTCA,0.0881
1,ATCTATAG,0.0164

# Remaining list, next part.

row,Sequence,PBM E-score
1,GCTATTCC,-0.249
2,CGTCCTTA,-0.0464
3,GCGGGTCC,-0.207
4,CACTTACA,0.216
5,CCCTATCC,-0.305
6,AAAGAAAT,0.122
7,GCTGTCGA,-0.00555
8,AAAAAGCG,0.146
9,ACCGACAA,-0.135
10,GGGGCTCA,-0.294
11,CGGGACCA,-0.178
12,AATTTCAT,0.0941
13,ATTCCCCG,-0.0432
14,CATTTGAG,0.00166
15,CACTGCTG,-0.0886
16,AGTAGATC,-0.191
17,CTGAGTGA,0.187
18,CAACAGTA,0.028
19,AATATTCA,0.157
20,AAGTCCCA,-0.209
21,AAACCCCC,-0.373
22,AGACTTTC,-0.0105
23,CTATCTCA,-0.0815
24,ACATAATC,0.309
25,AGAGGAAT,-0.205

row,Sequence,PBM E-score
1,GATGCGTA,0.0108
2,CAGTTCTC,-0.0867
3,CAAGCTTG,-0.294
4,ATGCCCTG,-0.0413
5,ACCTTCTG,-0.064
6,AGAGTATA,-0.0657
7,GAGTTCCC,-0.0222
8,ATGAGCCG,-0.0145
9,CGCCCGTC,0.0201
10,AATACGGG,-0.0773
11,ACAGCGCC,-0.0091
12,AAGACCTA,-0.0863
13,ACAGGTCA,-0.179
14,CTCGGGTA,-0.0583
15,GCGCCGCC,0.137
16,ATTCTACG,0.0286
17,GTAAGGTA,0.0927
18,GTGTACTA,0.0433
19,GTCGGAAA,0.226
20,ACTTTCCG,0.125
21,AGCAATAC,0.107
22,ATCAATTA,0.255
23,TGTGTGAA,-0.0643
24,ACCTTGGG,0.0381
25,AGGTGGCG,-0.115

row,Sequence,PBM E-score
1,AATGTAGT,0.0937
2,ACTTGAGA,0.016
3,TCTACAAA,-0.065
4,AACATGTA,0.117
5,AATCTTAT,0.103
6,GTTTTCGA,0.0375
7,AAAGTTCC,-0.151
8,CATTGGTC,0.145
9,CACAAATC,0.126
10,AACGAAAG,0.0872
11,GGGGTGGA,-0.253
12,AGTTTATG,-0.0699
13,TCATGAAA,-0.0885
14,GAGCCGGC,-0.00786
15,CGTGAGCC,-0.114
16,CACCTCTC,-0.253
17,CTAAGATA,-0.0701
18,CAGTTCGG,0.0626
19,ATGTGTCG,0.162
20,GTATCTAA,0.112
21,TCCGTACA,0.176
22,AGGCAGTA,-0.103

# As a short view, part of the list above:
row,Sequence,PBM E-score
1,AATGTAGT,0.0937
2,ACTTGAGA,0.016
